We go through 1 molecule from doi:10.1101/843821.

The target of this assay is T1, Mmp-RpoD (Methanococcus maripaludis (endogenous in strain S2)) (UniProt Q6LXM8).
T1 sequence: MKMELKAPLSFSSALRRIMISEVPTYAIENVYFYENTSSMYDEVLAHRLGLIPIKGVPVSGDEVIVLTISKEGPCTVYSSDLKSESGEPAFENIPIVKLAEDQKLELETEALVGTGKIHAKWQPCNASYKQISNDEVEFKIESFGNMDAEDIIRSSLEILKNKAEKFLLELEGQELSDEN
Nature of the assay: SEC.

These are yes or no findings as the source states them, for the method shown. Some results given as binding are weak or reduced against the parent protein; the word gives no strength.

B1: Mmp-aCPSF1 (enzyme, UniProt Q6LZD5 1-635)
chain: MSAEDILNEIKAAVINKAPGNAVITDVEFEGSEVVIYAKNPELFSNNLIKEFARDFRKRLAIRPDPSVLVEPDIAKDKILKIVPEDAEITNCIFDANTGEVIIESKKPGLVIGKEGSTLEDIKKAIQWAPKPVRTPPIPSDTIKAIRATMYRERADVKDILRRIGRRIHRDVRLRDDSWVRTSFLGGSREVGRTCLYHQTPESRILVDCGINIAVEDEKAFPHFDAPEFSIEEIDAVVVTHAHLDHCGFIPGLFRYGYDGPVYCTKPTRDLMTLLQKDYVDITEKEGKNVPYSSKDIKNCIKHTIPLDYGVTTDIAPAIKLTMHNAGHILGSAIAHCHVGDGLYNVAYTGDIKFEASRLLEPAVCQFPRLETLIIESTYGGYDDVLPERDETEKEFLRVIAETIARKGKAIIPVFGIGRAQELMLVLEEGYNQGIFNAPVYLDGMIWEATAIHTAYPEYLSKNMRNRIFHEGDNPFLSEVFKKVKNTNDRRNIMDSDEPGIILTTSGMLSGGPSVEYFKNLADDEKNSIVFVGYQSEGTLGRKIQKGFKEIPLMGKNGRSKAVKVNLSVHTLEGFSGHSDRKQLIKYLRKLKPIPDRILTVHGEVSKCIDLASTAYKLFKKETKAPMNLDSIRLR
Take B1: the binding result is recorded as “binds”.
